Source: patent US20250197499A1
Results are given in words; binding and its absence hold for the method and conditions named.

The chains behind the UniProt entries cited, without tags or fusion partners. Residues count along the entry.
UniProt Q9NZQ7: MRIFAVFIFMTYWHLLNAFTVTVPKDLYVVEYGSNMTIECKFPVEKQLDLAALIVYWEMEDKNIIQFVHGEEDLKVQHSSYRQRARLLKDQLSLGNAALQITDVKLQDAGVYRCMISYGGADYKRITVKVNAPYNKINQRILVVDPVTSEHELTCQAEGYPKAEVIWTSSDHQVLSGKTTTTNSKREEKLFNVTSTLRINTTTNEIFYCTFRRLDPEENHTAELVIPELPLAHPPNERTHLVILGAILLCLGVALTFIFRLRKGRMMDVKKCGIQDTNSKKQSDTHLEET
UniProt Q9BQ51, residues 20-219: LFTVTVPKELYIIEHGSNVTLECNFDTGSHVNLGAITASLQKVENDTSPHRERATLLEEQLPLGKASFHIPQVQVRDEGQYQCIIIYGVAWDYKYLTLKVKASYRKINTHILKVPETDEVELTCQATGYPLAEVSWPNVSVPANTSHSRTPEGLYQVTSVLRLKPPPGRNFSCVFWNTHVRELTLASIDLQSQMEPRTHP

Assays:
[1] = target: Recombinant human PD-L1-His tag (ACROBiosystems, #PD1-H5229) (human) (UniProt Q9NZQ7); experiment: Octet RED96e sensorgram; PD-L1-His loaded at 10 µg/ml on HIS1K sensor; negative control
[2] = target: Recombinant human PD-L2-His tag (ACROBiosystems, #PD2-H5220) (human) (UniProt Q9BQ51); experiment: Octet RED96e sensorgram; PD-L2-His loaded at 10 µg/ml on HIS1K sensor; negative control
[3] = target: Recombinant human PD-L2-His tag (ACROBiosystems, #PD2-H5220) (human) (UniProt Q9BQ51); experiment: multilayer Octet RED96e, PD-L2-His on His-sensor
[4] = target: Recombinant human PD-L1-His tag (ACROBiosystems, #PD1-H5229) (human) (UniProt Q9NZQ7); experiment: Octet RED96e; PD-L1-His loaded at 10 µg/ml on HIS1K sensor; negative control
[5] = target: Recombinant human PD-L1-His tag (ACROBiosystems, #PD1-H5229) (human) (UniProt Q9NZQ7); experiment: multilayer Octet RED96e, PD-L1-His on His-sensor
[6] = target: Recombinant human PD-L2-His tag (ACROBiosystems, #PD2-H5220) (human) (UniProt Q9BQ51); experiment: Octet RED96e; PD-L2-His loaded at 10 µg/ml on HIS1K sensor; negative control

- binding [3]: no binding (tested: 10 µg/ml)
- binding [4]: no binding (tested: 66,7 nM)
- binding [5]: no binding (tested: 10 µg/ml)
- binding [6]: no binding (tested: 66,7 nM)
B1: Monoclonal anti-CD28 (9.3) mAb (GeneTex, #GTX14664) (antibody, V domains shown)
VH: EVKLQQSGPGLVTPSQSLSITCTVSGFSLSDYGVHWVRQSPGQGLEWLGVIWAGGGTNYNSALMSRKSISKDNSKSQVFLKMNSLQADDTAVYYCARDKGYSYYYSMDYWGQGTSVTVSS
VL: DIELTQSPASLAVSLGQRATISCRASESVEYYVTSLMQWYQQKPGQPPKLLIFAASNVESGVPARFSGSGSGTNFSLNIHPVDEDDVAMYFCQQSRKVPYTFGGGTKLEIK
- binding [1]: no binding (tested: 66,7 nM (concentration from FIG.3b))
- binding [2]: no binding (tested: 66,7 nM (concentration from FIG.4b))
